Consider two substances from article PMC11634778.

No constants are given. Whether binding was seen depends on the method and setting. Binding seen in cells or lysates may run through a third protein. These calls come from enrichment with a bait or labelling near it, and not all partners need be listed. No binding means not detected with the bait. Tags and fused reporters may be left off the sequences shown.

The assay concerns the target T1, 3×FLAG-Hand2 (zebrafish) (UniProt P57102).
T1 sequence: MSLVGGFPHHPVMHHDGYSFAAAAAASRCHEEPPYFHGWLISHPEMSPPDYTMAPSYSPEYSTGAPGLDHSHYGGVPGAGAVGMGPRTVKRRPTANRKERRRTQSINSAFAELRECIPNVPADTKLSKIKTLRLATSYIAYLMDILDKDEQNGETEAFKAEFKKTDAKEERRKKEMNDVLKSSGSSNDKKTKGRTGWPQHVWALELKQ
Description: affinity purification with mass spectrometry; CoIP–MS: lysate of 400 deyolked 14 hpf embryos injected with 3×FLAG-hand2 or 3×FLAG-hand2 EDE mRNA; 800 μg soluble fraction on anti-FLAG M2 magnetic beads, 4 °C overnight; CoIP buffer 50 mM Tris–HCl pH 7.5, 150 mM NaCl, 1 mM EDTA, 1% Triton X-100; washed three times with TBS; background control 3×HA-hand2 mRNA-injected embryos.

For the substance “Tcf3b (zebrafish (endogenous in embryos))”, the binding entry was “binds”.
Then “transcription factor 3a (Tcf3a) (zebrafish (endogenous in embryos))”, with “no binding”.
